Results are given in words; binding and its absence hold for the method and conditions named. Some entries that bind do so weakly or less than the wild type. Where a sequence is shown, tags or fusion partners need not be part of it.
T1: eEF3 (yeast translation elongation factor 3), C-terminally TAP-tagged (S. cerevisiae) (UniProt P16521)
T1 sequence: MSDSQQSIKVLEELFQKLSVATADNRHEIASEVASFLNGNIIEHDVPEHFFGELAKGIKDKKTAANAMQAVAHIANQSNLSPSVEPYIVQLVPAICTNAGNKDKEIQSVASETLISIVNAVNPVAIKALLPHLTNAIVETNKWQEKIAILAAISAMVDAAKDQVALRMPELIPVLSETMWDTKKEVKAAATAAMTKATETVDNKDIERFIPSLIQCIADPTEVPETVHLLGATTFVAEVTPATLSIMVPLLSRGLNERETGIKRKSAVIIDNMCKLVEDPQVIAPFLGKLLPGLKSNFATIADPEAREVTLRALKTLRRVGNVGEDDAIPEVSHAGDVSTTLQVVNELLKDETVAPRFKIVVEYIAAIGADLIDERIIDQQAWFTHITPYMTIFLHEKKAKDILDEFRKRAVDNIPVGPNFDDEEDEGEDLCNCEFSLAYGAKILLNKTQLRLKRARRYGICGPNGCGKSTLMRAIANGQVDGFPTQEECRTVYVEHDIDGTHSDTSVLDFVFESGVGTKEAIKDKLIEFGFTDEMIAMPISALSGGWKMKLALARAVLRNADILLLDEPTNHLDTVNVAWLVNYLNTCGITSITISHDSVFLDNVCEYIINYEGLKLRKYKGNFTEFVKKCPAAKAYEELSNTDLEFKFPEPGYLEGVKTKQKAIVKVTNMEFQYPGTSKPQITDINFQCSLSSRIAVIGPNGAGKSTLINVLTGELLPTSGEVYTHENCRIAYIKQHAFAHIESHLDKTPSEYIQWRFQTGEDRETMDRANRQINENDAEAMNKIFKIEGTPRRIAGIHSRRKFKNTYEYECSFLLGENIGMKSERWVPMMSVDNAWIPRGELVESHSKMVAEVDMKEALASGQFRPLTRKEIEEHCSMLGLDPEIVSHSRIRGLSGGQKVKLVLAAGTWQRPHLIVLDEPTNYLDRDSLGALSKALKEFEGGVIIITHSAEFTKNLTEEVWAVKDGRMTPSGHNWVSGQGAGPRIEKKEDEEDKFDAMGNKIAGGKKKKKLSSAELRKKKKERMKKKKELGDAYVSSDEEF

By UniProt entry, the sequences of proteins in these tests, tags left out.
UniProt P0CX43: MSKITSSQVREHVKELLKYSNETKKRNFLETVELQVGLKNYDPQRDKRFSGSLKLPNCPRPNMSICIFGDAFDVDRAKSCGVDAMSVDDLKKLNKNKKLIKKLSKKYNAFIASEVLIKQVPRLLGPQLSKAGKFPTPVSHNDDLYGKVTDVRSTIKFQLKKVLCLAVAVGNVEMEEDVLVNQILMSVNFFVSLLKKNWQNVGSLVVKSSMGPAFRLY


Key:
[1] = target: T1, eEF3 (yeast translation elongation factor 3), C-terminally TAP-tagged (S. cerevisiae); assay: cryo-EM structure; same pull-out and cross-linked sample; non-rotated POST-2 subclass (P/P- and E/E-tRNA, L1 stalk 'int'), 3.9 Å
[2] = target: T1, eEF3 (yeast translation elongation factor 3), C-terminally TAP-tagged (S. cerevisiae); assay: cryo-EM structure; native eEF3-80S complex from the eEF3-TAP pull-out, eluted with TEV protease in buffer 30 with 1 mM ADPNP, cross-linked with 0.02% glutaraldehyde; group I particles sorted with a mask on eEF3, 3.3 Å, multi-body refinement

binding [1] | binding [2] | Molecule
binds | – | ribosomal protein uL1 (L1 stalk of the 60S subunit) (from UniProt P0CX43 1-217)
– | binds | ribosomal protein uL18 (60S subunit) (protein, UniProt P26321 1-297) MAFQKDAKSSAYSSRFQTPFRRRREGKTDYYQRKRLVTQHKAKYNTPKYRLVVRFTNKDIICQIISSTITGDVVLAAAYSHELPRYGITHGLTNWAAAYATGLLIARRTLQKLGLDETYKGVEEVEGEYELTEAVEDGPRPFKVFLDIGLQRTTTGARVFGALKGASDGGLYVPHSENRFPGWDFETEEIDPELLRSYIFGGHVSQYMEELADDDEERFSELFKGYLADDIDADSLEDIYTSAHEAIRADPAFKPTEKKFTKEQYAAESKKYRQTKLSKEERAARVAAKIAALAGQQ
– | binds | ribosomal protein uS13 (40S subunit head) (protein, UniProt P0CX55 1-146) MSLVVQEQGSFQHILRLLNTNVDGNIKIVYALTTIKGVGRRYSNLVCKKADVDLHKRAGELTQEELERIVQIMQNPTHYKIPAWFLNRQNDITDGKDYHTLANNVESKLRDDLERLKKIRAHRGIRHFWGLRVRGQHTKTTGRRRA

From paper PMC7957392, “Yeast translation elongation factor eEF3 promotes late stages of tRNA translocation” (The EMBO Journal, 2021)
